Some of the results follow. Further columns of the screen follow, without active or inactive calls. Compounds called inactive in the main read-out are mostly missing here. The note in brackets gives the kind of curve behind each potency; many fits are weak.
Test: qHTS Assay for Lipid Storage Modulators in Drosophila S3 Cells;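 as to cell number change: cells counted by Cell Tracker Red CMTPX staining in the red channel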
Settings: BODIPY lipid droplet fluorescence, 18-24 h; for cell number change: measured here: cell count max response, cells fed with added oleic acid
Procedure, shortened: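 Drosophila S3 cells loaded with oleic acid (400 uM, as added) and compounds at several concentrations; lipid droplets imaged by 488-nm laser-scanning cytometry, 500–530 nm intensity and object ratio to cell channel. Percent activity normalized to 20 uM Triacsin C.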

[1] = measured here: lipid fluorescence (Fed channel) AC50, cells fed with added oleic acid
[2] = measured here: cell number channel AC50, cells fed with added oleic acid

SMILES | cell number change [%] | AC50 [1] | AC50 [2]
O=C(OCc1ccccc1)c1cn(-c2ccccc2)nc1-c1ccncc1 | -13.1 | – | –
O=C(COC(=O)c1ccccc1Br)NCc1ccccc1 | – | 14.6 µM [rising, partial curve, poor fit] | –
CC(C(=O)N1CCCC1)c1ccc([N+](=O)[O-])cc1 (stereo unspecified) | 14.7 | 6.51 µM [falling, single point] | –
CC(=O)c1cccc(S(=O)(=O)NCC(c2ccco2)N2CCCCC2)c1 (stereo unspecified) | 33.1 | 0.517 µM [rising, full curve, poor fit] | 23.1 µM [rising, partial curve]
Cc1[nH]nc(N2CCCCC2)c1[N+](=O)[O-] | 9.95 | 6.51 µM [rising, single point] | –
COc1ccc(S(=O)(=O)N2CCN(C(=O)C3CCCCC3)CC2)cc1 | -1.32 | 1.26 µM [falling, partial curve] | –
O=C(CCCN1C(=O)/C(=C/c2ccccc2Cl)SC1=S)NNC(=O)c1cccnc1 | 11 | 29.1 µM [rising, single point] | –
O=C(CSc1nnc(CNC(=O)c2c(F)cccc2F)o1)NCc1ccccc1 | -40.8 | 12.6 µM [falling, partial curve] | 10 µM [falling, partial curve]
Cc1ccc(S(=O)(=O)N2CN(CC3CCCO3)c3nc4ccccc4nc32)c(C)c1 (stereo unspecified) | -8.85 | – | –
Oc1ccc(N=Cc2cc(Br)c(N3CCOCC3)o2)cc1 | 54.8 | 29.1 µM [rising, partial curve] | 23.1 µM [rising, single point]
COc1ccc(NC(=O)CSc2nnc(CNC(=O)COc3ccc(Cl)cc3)o2)cc1 | -13.7 | 0.82 µM [falling, full curve, poor fit] | –
CC1CCCC(C)N1CCNC(=O)CCn1nc(-c2ccccc2)ccc1=O (stereo unspecified) | 2.92 | 1.46 µM [falling, partial curve] | 1.03 µM [falling, full curve]
Cc1ccc(C)c(S(=O)(=O)N2CCN(C(=O)CCC(=O)c3cc(C)sc3C)CC2)c1 | – | – | 6.51 µM [rising, single point]
Cc1ccc(-c2nc(-c3ccccc3)no2)c(Cl)c1 | 6.73 | 20.6 µM [rising, single point] | –
COc1cc(C)c(CN2CCN(S(=O)(=O)c3ccc(Cl)s3)CC2)cc1OC | – | 7.31 µM [falling, single point] | –
COc1ccc2c(c1)[C@H]1[C@H](CO2)[C@H](c2ccccc2)[C@]2(C)C(=O)Nc3cc(OC)c(OC)cc3C(=O)N12 | -25.4 | 0.116 µM [falling, full curve, poor fit] | –
[N-]=[N+]=NC1c2ccccc2C(=O)N1Cc1ccccc1 (stereo unspecified) | -6.2 | 29.1 µM [rising, single point] | –
COc1ccc(CCNC(=O)NCCc2c[nH]c3ccccc23)cc1OC | -25.9 | – | –

SMILES | cell number change [%] | AC50 [1] | AC50 [2]
Cc1ccc(-n2ncc3c(=O)[nH]c(SC(C)C)nc32)cc1 | -12.6 | 3.66 µM [falling, partial curve] | 4.11 µM [falling, partial curve]
COc1ccc(C(=O)NCC(=O)n2nc(C)cc2C)cc1OC | 12.7 | 0.103 µM [falling, full curve, poor fit] | –
CC(C)(C)OC(=O)NCCCC[C@@H](C(=O)N1CCN(C(=O)OC(C)(C)C)CC1)n1cc(C(CO)NC(=O)OC(C)(C)C)nn1 (stereo partly specified) | – | 1.46 µM [falling, partial curve] | –
COc1ccc(S(=O)(=O)N2CCCCC2)cc1NC(=O)C1CCCC1 | -7.03 | – | –
CCOc1ccccc1NC1=C(Cl)C(=O)N(c2ccccc2)C1=O | – | – | 2.59 µM [rising, single point]
CCOC(=O)c1ccc(NC(=O)Nc2cccc(C)n2)cc1 | 8.02 | – | 0.259 µM [rising, full curve]
CC(C)(C)c1nc2sc3c(c2c(=O)o1)CCCC3 | 6.29 | – | –
CCOc1ccc(CCNC(=O)COC(=O)c2cc([N+](=O)[O-])ccc2N2CCOCC2)cc1OCC | -54 | 29.1 µM [falling, single point] | 29.1 µM [falling, single point]
Cc1ccc(CCN2CC(C(=O)NCCc3ccccc3)CC2=O)cc1 (stereo unspecified) | 39.4 | 13 µM [rising, partial curve] | 13 µM [rising, partial curve, poor fit]
COc1cc2c(cc1OC)C(C)N(C(=O)c1ccc(Cl)c(S(=O)(=O)N3CCCCC3)c1)CC2 (stereo unspecified) | -23 | – | –
O=C(NCC(c1ccco1)N1CCOCC1)c1cccc([N+](=O)[O-])c1 (stereo unspecified) | – | 0.58 µM [rising, single point] | 6.51 µM [falling, single point]
NC(=O)c1cc([N+](=O)[O-])ccc1NCc1cnccn1 | -3.61 | 0.00461 µM [falling, full curve, poor fit] | –
COc1ccc(O)c(/C=N/NC(=O)c2ccc(OCc3cccc(Br)c3)cc2)c1 | -78 | 13 µM [falling, partial curve] | 20.6 µM [falling, partial curve]
CC1(c2nnc(Cc3ccccc3)o2)CC(c2ccccc2F)=NO1 (stereo unspecified) | -48.1 | 2.91 µM [falling, full curve] | 23.1 µM [falling, partial curve, poor fit]
COc1ccccc1C(=O)N(Cc1nc(-c2ccc(Cl)cc2)no1)C(C)C | 55.3 | 29.1 µM [rising, single point] | 8.2 µM [rising, partial curve]
Cc1ccc(N(CC(=O)NCc2ccccc2)C(=O)CCC(=O)Nc2ccccn2)cc1 | 27.3 | 6.51 µM [falling, single point] | –
N#Cc1ccsc1NC(=O)c1ccc(Cl)c([N+](=O)[O-])c1 | -1 | 13 µM [falling, single point] | –
Oc1ccccc1Nc1nc(NCc2ccco2)c2ccccc2n1 | -18 | 3.26 µM [falling, full curve, poor fit] | –

3 compounds from above with just cell number change [%] and AC50 [2].
SMILES | cell number change [%] | AC50 [2]
COc1ccc(S(=O)(=O)N2CCCCC2)cc1NC(=O)C1CCCC1 | -7.03 | –
CC1(c2nnc(Cc3ccccc3)o2)CC(c2ccccc2F)=NO1 (stereo unspecified) | -48.1 | 23.1 µM [falling, partial curve, poor fit]
COc1ccccc1C(=O)N(Cc1nc(-c2ccc(Cl)cc2)no1)C(C)C | 55.3 | 8.2 µM [rising, partial curve]
